We go through two substances from patent US7507708B2 (Pharma Mar, S.A.U., priority 2003, dated 2009).

Some peptides are written in HELM: one residue between dots, names in brackets for other building blocks, links after the first $. Bounds are passed on as bounds.

The data set is described as follows: general procedure: Fmoc solid-phase peptide synthesis; DIPCDI/HOAt. Particulars: whole synthesis.
The mark [1] stands for this setting: HPLC Condition A, scale of the general procedure 1 g of resin.
Where [2] appears, read: scale of the general procedure 1 g of resin.

Substance “PEPTIDE1{[4S-MeHex].[dV].T.V.[dV].[dP].[Orn].[D-aIle].[D-aThr].[D-aIle].[dV].F.[Z-Dhb].V}$PEPTIDE1,PEPTIDE1,9:R3-14:R2$$$V2.0” registered an isolated mass of 192 mg. Moreover, under setting [1], the “final purity (method not given)” value was 92.3%. The same substance showed an isolated yield under setting [2] of 26%.

Take “(4S)-MeHex-D-Val-Thr(tBu)-Val-D-Val-D-Pro-Orn(Boc)-D-allo-Ile-D-allo-Thr (Val-Z-Dhb-Phe-H)-D-allo-Ile-D-Val-OH”: the crude mass was 639 mg. The “crude HPLC purity” value under setting [1] is above 95%. The same substance came in with a crude yield under setting [2] of 77% yield.
